According to PubChem BioAssay AID602313 (National Center for Advancing Translational Sciences (NCATS), 2012):
The whole screen tested about 390,000 compounds, of which about 760 (0.19%) were called active. Inconclusive means that the source gave no clear call. Such entries were picked first, then a sample of the others. Calls come from the whole dose curve; as a rule, active = well fitted inhibition curve with a large enough effect; inconclusive = small, poorly fitted or top-dose-only effect; inactive = flat fitted curve, though single readings scatter. Potencies of inconclusive entries are doubtful fits and often do not repeat.

Experiment: qHTS for Inhibitors of Vif-A3F Interactions: qHTS; note: nearly all actives have a fitted effect of over 65% in size; for activity, negative = active: % of control where 0% means no effect
Details: HeLa A3F-eYFP + Vif (tagged APOBEC3F with the HIV-1 protein that degrades it), YFP fluorescence increase; series mostly up to 46.1 µM; activity, negative = active: at the top concentration
How it was run: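 HeLa cells stably expressing Vif plus C-terminally eYFP-tagged A3F were seeded, incubated overnight at 37 deg C, dosed with compound, incubated overnight again at 37 deg C. Yellow fluorescence (Ex 488/Em 500-530) reported blocked Vif-mediated A3F-eYFP degradation.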
Potency is the fitted concentration of half-maximal effect.

SMILES	Potency	activity, negative = active
CCc1ccccc1NC(=O)CNC(=O)CCc1nc2sc3c(c2c(=O)[nH]1)CCCC3	inconclusive: 35.5 µM [inhibitor, single point]	
COc1cc([C@@H]2[C@H]3CNCC=C3C(C#N)=C(N)C2(C#N)C#N)ccc1OC(C)C	inconclusive: 14.1 µM [inhibitor, partial curve, poor fit]	
FC(F)Oc1ccc(NC(=S)NNc2ccnc3cc(Cl)ccc23)cc1	inconclusive: 25.1 µM [inhibitor, single point]	
Cc1ccc(NC(=S)N/N=C/c2c(C)[nH]c3ccccc23)cc1	inconclusive: 3.16 µM [inhibitor, partial curve, poor fit]	
Cc1ccc(C(=O)N/N=c2\oc3ccccc3cc2C(N)=O)cc1		inactive: 1.78%
CCOc1ccc(-c2cn3c(n2)sc2cc(C(=O)NCCCN4CCCCC4)ccc23)cc1	inconclusive: 3.16 µM [inhibitor, single point]	
COC(=O)C1=C(N)Oc2cc(C)n(Cc3ccncc3)c(=O)c2C1c1cccnc1 (configuration not stated)		inactive: -0.555%
CCOC(=O)/C(=C\c1ccc(N2CCC(c3ccccc3)=N2)cc1)C(C)=O	inconclusive: 35.5 µM [inhibitor, single point]	
CCSc1nnc(NC(=O)c2ccccc2)s1		inactive: 1.64%
Cc1ccc(-c2nnc(NC(=O)c3ccc([N+](=O)[O-])o3)o2)c(C)c1	inconclusive: 3.16 µM [inhibitor, single point]	
CC(=O)Oc1ccc(-c2ccc(C(=O)NCCc3ccc(S(N)(=O)=O)cc3)cc2)cc1	inconclusive: 5.01 µM [inhibitor, single point]	
Cc1[nH]c2ccccc2c1/C=C/C(=O)c1ccccc1	active: 28.2 µM	
Cc1c(Cl)cccc1NC(=O)Cn1c(=O)cc(C)c2c(C)nn(-c3cccc(F)c3)c21		inactive: -0.86%
Cc1nn(-c2nccs2)c2c1C(=O)CC(C)(C)C2Br (configuration not stated)		inactive: 6.57%
COc1ccc(-c2noc(CSc3nnc(C)n3-c3ccc(F)cc3)n2)cc1		inactive: -1.59%
C=CCSC(=S)Nc1c(C)n(C)n(-c2ccccc2)c1=O	inconclusive: 31.6 µM [inhibitor, single point]	
CNC(=S)N/N=C/c1c2ccccc2c(Cl)c2ccccc12	inconclusive: 11.2 µM [inhibitor, partial curve, poor fit]	
CCOc1ccsc1C(=O)O	inconclusive: 1.26 µM [inhibitor, partial curve, poor fit]	
O=C(O)Cc1sc(Nc2cccc3ccccc23)nc1-c1ccc(Cl)cc1		inactive: -16.8%
CC1=CC(C)(C)NC(=S)N1c1ccc(C)cc1C	inconclusive: 17.8 µM [inhibitor, partial curve, poor fit]	
COc1ccc2nc3cc(Cl)ccc3c(Nc3ccc(O)c(CN4CCN(C)CC4)c3)c2c1	inconclusive: 35.5 µM [inhibitor, single point]	
COCCN(C(=O)CSc1nnc(C)n1Cc1ccccc1)c1c(N)n(Cc2ccccc2)c(=O)[nH]c1=O		inactive: 8.05%
Cc1cc(C)n(-c2nc3ccccc3nc2Nc2ccc3[nH]c(=O)[nH]c3c2)n1	inconclusive: 35.5 µM [inhibitor, single point]	
COc1cc2c(cc1OC)CN(CC(=O)Nc1ccc(Cl)cc1Cl)CC2		inactive: -3.56%

Looked up above:
O=C(O)Cc1sc(Nc2cccc3ccccc23)nc1-c1ccc(Cl)cc1 – activity, negative = active: inactive: -16.8%
COc1ccc(-c2noc(CSc3nnc(C)n3-c3ccc(F)cc3)n2)cc1 – activity, negative = active: inactive: -1.59%

Next part:

SMILES	Potency	activity, negative = active
C=CCSc1nnc2nc3[nH]c4c(C)cccc4c3nn12	inconclusive: 35.5 µM [inhibitor, single point]	
Cc1ccc(C(=O)N2C3=C(CCCC3)C(=O)NC23CCCCC3)cc1		inactive: 1.67%
Cc1cccc(NC(=O)c2cc([N+](=O)[O-])ccc2Cl)c1O		inactive: -32.4%
CCN(Cc1ccccc1)C(=O)CSc1nc(C)cc(C)c1C#N		inactive: 1.26%
CCCN(CCC)c1c([N+](=O)[O-])c(=O)oc2ccccc12		inactive: -4.57%
Cc1ccc(-c2ccc([C@H]3[C@@H]4C=CCC[C@@]4(C)C(=O)N3Cc3ccccc3)c(F)c2)cc1	inconclusive: 35.5 µM [inhibitor, single point]	
CNc1cccnc1C=NNC(N)=S	inconclusive: 35.5 µM [inhibitor, single point]	
CCOC(=O)C(NC(=O)c1ccccc1)(Nc1cc(C)on1)C(F)(F)F (configuration not stated)		inactive: -0.0494%
CC[C@@]1(O)C(=O)OCc2c1cc1n(c2=O)Cc2cc3c(CN(C)C)c(O)ccc3nc2-1	inconclusive: 35.5 µM [inhibitor, single point]	
Fc1ccc(NC(=S)N/N=C/c2cccc(Br)c2)c(F)c1		inactive: 9.92%
C=CCn1c(SCC(=O)c2cc(C)n(C(C)COC)c2C)nc2sc(C)c(C)c2c1=O (configuration not stated)		inactive: 7.55%
COc1ccc(OCc2nn3c(-c4ccco4)nnc3s2)cc1		inactive: 0.0889%
N#C/C(=C\c1c[nH]c2ccccc12)C(=O)Nc1ncc(Cc2ccc(Cl)cc2Cl)s1	inconclusive: 35.5 µM [inhibitor, single point]	
O=C(COC(=O)c1ccc(Br)o1)NCCCc1ccccc1		inactive: 4.92%
O=C(Nc1csnn1)OCc1ccccc1	inconclusive: 28.2 µM [inhibitor, single point]	
COc1ccc2nc(N3C(=O)/C(=C/c4ccc(Cl)cc4)NC3=S)sc2c1	inconclusive: 17.8 µM [inhibitor, partial curve, poor fit]	
C(=C/c1nccc2c1[nH]c1ccccc12)/c1ccc2c(c1)OCO2	inconclusive: 20 µM [inhibitor, partial curve, poor fit]	
CCCNC(=O)Cn1nc(-c2ccc(OC)cc2)c2cnc3ccc(F)cc3c21		inactive: 2.75%
N#C/C(=C\c1ccc(OCc2ccc(Cl)cc2Cl)cc1)c1nc2ccccc2[nH]1	inconclusive: 25.1 µM [inhibitor, single point]	
N#CCc1nc(C(c2ccccc2)c2ccccc2)no1	inconclusive: 35.5 µM [inhibitor, single point]	
COCCCn1c(=S)[nH]c2c(sc3ccccc32)c1=O	inconclusive: 15.8 µM [inhibitor, single point]	
Cc1ccccc1C(=O)OC1CCN(C)CC1	inconclusive: 2.51 µM [inhibitor, full curve, poor fit]	
CN(CC(=O)Nc1ccccc1C(F)(F)F)C(=O)CCc1nc2ccccc2c(=O)[nH]1	inconclusive: 8.91 µM [inhibitor, partial curve, poor fit]	
